Test results published in PubChem BioAssay AID743263 (The Scripps Research Institute Molecular Screening Center, 2014).
The campaign covered roughly 1,100 compounds. About 250 (23%) were called active. Rule as the data show it: active = inhibition above about 25%; inactive = the rest. The list shows a part of the results, in another mix than the full data.

Chains of the proteins cited; added tags and fusions are not shown. Lines headed by an entry give the natural chain unless they say otherwise; changes in a name come on top.
UniProt O95551: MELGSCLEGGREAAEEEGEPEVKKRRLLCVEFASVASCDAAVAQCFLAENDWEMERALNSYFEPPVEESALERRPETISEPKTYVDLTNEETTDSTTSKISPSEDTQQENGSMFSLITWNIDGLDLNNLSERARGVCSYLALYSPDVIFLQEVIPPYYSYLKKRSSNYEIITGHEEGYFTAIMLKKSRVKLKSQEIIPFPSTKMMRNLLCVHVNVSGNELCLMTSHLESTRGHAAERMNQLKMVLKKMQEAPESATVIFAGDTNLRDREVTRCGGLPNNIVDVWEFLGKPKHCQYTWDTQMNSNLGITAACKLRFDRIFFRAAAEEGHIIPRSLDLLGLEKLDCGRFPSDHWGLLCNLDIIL

The compounds below were run against Tyrosyl-DNA phosphodiesterase 2 (Homo sapiens) (UniProt O95551) (assay: blockers of TDP2 phosphodiesterase activity – biochemical, epi absorbance, recombinant enzyme, confirmation (AID 743263;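 also: 0% = vehicle with enzyme and 100% = no enzyme buffer only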)). Details: recombinant human TDP2, absorbance read-out; at 12.8 µM; hits give high values.
`COc1cc2c(cc1OC)-c1c(OC)c(OC)cc3c1[C@H](C2)N(C)CC3` was tested, and the inhibition was active: 55.9%. With `O=C1NC(=O)N(Cc2ccco2)C(=O)/C1=C\c1ccc(-c2ccc(F)cc2)o1` the inhibition was inactive: 16.4%.
